# Values of other authors in US20090305888A1, “Materials and Methods for Providing Oxygen to Improve Seed Germination and Plant Growth” (priority 2006, published 2009).
# At least one structure is not confirmed: it was looked up by name or label, or the drawing left a doubt.
# Conditions: cited from earlier work
compound,measurement,value
[Ca+2].[O-][O-] [calcium peroxide],time the controlled release of oxygen can last,up to six
